Laboratory results: the supplement of paper PMC3682954
Where a name gives a salt, the structure may show the parent alone. ± gives the standard deviation of the averaged measurements. The list shows a part of the results. Many values rest on one well or one pass, so single values are uncertain.

Tested on: RAW 264.7
Assay: HMGB1-induced TNF-alpha production relative to HMGB1-stimulated control; higher = more TNF-alpha secretion (less inhibition)
Conditions: stimulus: HMGB1 5 ug/ml, 18 h
[1] = compound concentration: 1 ug/ml

SMILES | HMGB1-induced TNF-alpha production [1] [%] | HMGB1-induced TNF-alpha production (compound concentration: 3 uM) [%]
COc1cn([C@@H]2O[C@H](CO)[C@@H](O)[C@H]2O)c(=O)[nH]c1=O [5-Methoxyuridine] | 83.2 | 
CCOC(=O)Nc1ccc(NCc2ccc(F)cc2)nc1N [Flupirtine maleate] |  | 90.5
O=C[C@H](O)[C@@H](O)[C@H](O)[C@H](O)CO[C@@H]1O[C@H](CO)[C@@H](O)[C@H](O)[C@H]1O [Gentiobiose] | 77.6 | 
C[C@@]1(O)CCOC(=O)C1 [Mevalonic-D, L acid lactone] |  | 96.4
COCC(=O)Nc1c(I)c(C(=O)NCC(O)CO)c(I)c(C(=O)N(C)CC(O)CO)c1I (configuration not stated) [Iopromide] |  | 127
N[C@@H](CSSC[C@H](N)C(=O)O)C(=O)O |  | 59.6
CC1COc2c(N3CCN(C)CC3)c(F)cc3c(=O)c(C(=O)O)cn1c23 (configuration not stated) [Ofloxacin] |  | 101 ± 15
CC1COc2c(N3CCN(C)CC3)c(F)cc3c(=O)c(C(=O)O)cn1c23 (configuration not stated) |  | 82.2
O=C(O)/C=C/c1cnc[nH]1 [4-Imidazoleacrylic acid] |  | 112
O=C(O)/C=C/c1cnc[nH]1 [Urocanic acid] | 88.4 | 
C[C@H](CCC(=O)O)[C@H]1CC[C@H]2[C@@H]3CC[C@@H]4C[C@H](O)CC[C@]4(C)[C@H]3CC[C@]12C [Lithocholic acid] | 77.6 | 98.8
CC(=O)SCC(Cc1ccccc1)C(=O)NCC(=O)OCc1ccccc1 (configuration not stated) |  | 99.6
CC(=O)SCC(Cc1ccccc1)C(=O)NCC(=O)OCc1ccccc1 (configuration not stated) [Racecadotril] |  | 94.6 ± 22
CC(C)(C)OC(=O)N[C@@H](Cc1cnc[nH]1)C(=O)O [N-alpha-(tert-Butoxycarbonyl)-L-histidine] | 65.3 | 
COC(=O)C1=C(C)NC(C)=C(C(=O)OC(C)C)C1c1cccc2nonc12 (configuration not stated) [Isradipine] |  | 82.4
COC(=O)C1=C(C)NC(C)=C(C(=O)OC(C)C)C1c1cccc2nonc12 (configuration not stated) |  | 108
Cc1cn(C2CC(O)C(COP(=O)(O)OP(=O)(O)OP(=O)(O)O)O2)c(=O)[nH]c1=O (configuration not stated) [Thymidine 5'-triphosphate sodium salt] | 81.1 | 
CC(C)NCC(O)c1cc(O)cc(O)c1 (configuration not stated) [Metaproterenol hemisulfate] |  | 56.4
CC(C)NCC(O)c1cc(O)cc(O)c1 (configuration not stated) |  | 40.7
CC(C)NCC(O)c1cc(O)cc(O)c1 (configuration not stated) [Metaproterenol sulfate, orciprenaline sulfate] |  | 26.4
O=[N+]([O-])c1cc2nc(O)c(O)nc2cc1[N+](=O)[O-] |  | 87.4

3 records drawn at random from those above, as already listed:
SMILES | HMGB1-induced TNF-alpha production [1] [%] | HMGB1-induced TNF-alpha production (compound concentration: 3 uM) [%]
N[C@@H](CSSC[C@H](N)C(=O)O)C(=O)O |  | 59.6
CC(=O)SCC(Cc1ccccc1)C(=O)NCC(=O)OCc1ccccc1 (configuration not stated) [Racecadotril] |  | 94.6 ± 22
CC1COc2c(N3CCN(C)CC3)c(F)cc3c(=O)c(C(=O)O)cn1c23 (configuration not stated) |  | 82.2

Later entries.

SMILES | HMGB1-induced TNF-alpha production [1] [%] | HMGB1-induced TNF-alpha production (compound concentration: 3 uM) [%]
CC(=O)/C(C)=N/O [2,3-Butanedione monoxime] |  | 98.3
CCCCCCCCCCCCCCSCC(=O)O [Tetradecylthioacetic acid] |  | 101
CCCn1cnc2c1c(=O)n(CCCCC(C)=O)c(=O)n2C |  | 78.7
CCCn1cnc2c1c(=O)n(CCCCC(C)=O)c(=O)n2C [Propentofylline] |  | 112
CC(C)(CO)Cc1cc(C(C)(C)C)c(O)c(C(C)(C)C)c1 |  | 76.6
O=C(O)CN(CCN(CC(=O)O)CC(=O)O)CCN(CC(=O)O)CC(=O)O [Diethylenetriaminepentaacetic acid] |  | 75.9
O=C(O)CN(CCN(CC(=O)O)CC(=O)O)CCN(CC(=O)O)CC(=O)O |  | 90.2
O=C(O)CN(CCN(CC(=O)O)CC(=O)O)CCN(CC(=O)O)CC(=O)O [Pentetic acid] |  | 102
C#CCN(C)CCCOc1ccc(Cl)cc1Cl |  | 78
C#CCN(C)CCCOc1ccc(Cl)cc1Cl [Clorgyline hydrochloride] |  | 85.5 ± 32
Cn1c(=O)c2c(ncn2CCO)n(C)c1=O [Etofylline] |  | 90.3
COc1ccccc1N1CCN(CCCNc2cc(=O)n(C)c(=O)n2C)CC1 [Urapidil hydrochloride] |  | 94.5 ± 2.4
COc1ccccc1N1CCN(CCCNc2cc(=O)n(C)c(=O)n2C)CC1 |  | 89.6 ± 25
CN/C(=N\c1ccc(C2=NNC(=O)CC2C)cc1)NC#N (configuration not stated) [Siguazodan] |  | 85.5
Nc1ccn([C@H]2C[C@H](O)[C@@H](COP(=O)(O)O)O2)c(=O)n1 [2'-Deoxycytidine 5'-monophosphate] | 77.7 | 
O=C(CCCN1CCC(O)(c2cccc(C(F)(F)F)c2)CC1)c1ccc(F)cc1 [Trifluperidol] |  | 90.3
O=C(CCCN1CCC(O)(c2cccc(C(F)(F)F)c2)CC1)c1ccc(F)cc1 [Trifluperidol hydrochloride] |  | 98.4
O=c1c2ccccc2nc2n1CCc1c-2[nH]c2ccccc12 [Rutaecarpine] |  | 112
O=C(/C=C/C=C/c1ccc2c(c1)OCO2)N1CCCCC1 |  | 90.6
CCC(=O)OCC(=O)[C@@]1(OC(=O)CC)[C@@H](C)C[C@H]2[C@@H]3CCC4=CC(=O)C=C[C@]4(C)[C@@]3(Cl)[C@@H](O)C[C@@]21C [Beclomethasone dipropionate] |  | 53.8
